Reference: the supplement of paper PMC10849652
This is one part of the list.

Amino acid sequences for entries named in this document (tags omitted). A change or cut given only in a name is not applied to a line headed by its entry.
UniProt P51148: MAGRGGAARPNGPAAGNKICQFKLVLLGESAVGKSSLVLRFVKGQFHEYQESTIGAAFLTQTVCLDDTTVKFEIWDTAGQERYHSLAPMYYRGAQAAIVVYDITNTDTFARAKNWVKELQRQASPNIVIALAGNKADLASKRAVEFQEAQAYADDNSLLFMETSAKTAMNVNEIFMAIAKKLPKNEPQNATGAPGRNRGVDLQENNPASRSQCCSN
UniProt Q6IQ22: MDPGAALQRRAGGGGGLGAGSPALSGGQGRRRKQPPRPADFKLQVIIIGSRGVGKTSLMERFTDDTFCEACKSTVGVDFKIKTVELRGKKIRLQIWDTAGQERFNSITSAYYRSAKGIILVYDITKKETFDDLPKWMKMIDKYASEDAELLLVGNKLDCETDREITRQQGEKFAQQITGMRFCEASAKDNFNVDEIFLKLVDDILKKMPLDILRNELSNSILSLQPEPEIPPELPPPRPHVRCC
UniProt Q6GYQ0: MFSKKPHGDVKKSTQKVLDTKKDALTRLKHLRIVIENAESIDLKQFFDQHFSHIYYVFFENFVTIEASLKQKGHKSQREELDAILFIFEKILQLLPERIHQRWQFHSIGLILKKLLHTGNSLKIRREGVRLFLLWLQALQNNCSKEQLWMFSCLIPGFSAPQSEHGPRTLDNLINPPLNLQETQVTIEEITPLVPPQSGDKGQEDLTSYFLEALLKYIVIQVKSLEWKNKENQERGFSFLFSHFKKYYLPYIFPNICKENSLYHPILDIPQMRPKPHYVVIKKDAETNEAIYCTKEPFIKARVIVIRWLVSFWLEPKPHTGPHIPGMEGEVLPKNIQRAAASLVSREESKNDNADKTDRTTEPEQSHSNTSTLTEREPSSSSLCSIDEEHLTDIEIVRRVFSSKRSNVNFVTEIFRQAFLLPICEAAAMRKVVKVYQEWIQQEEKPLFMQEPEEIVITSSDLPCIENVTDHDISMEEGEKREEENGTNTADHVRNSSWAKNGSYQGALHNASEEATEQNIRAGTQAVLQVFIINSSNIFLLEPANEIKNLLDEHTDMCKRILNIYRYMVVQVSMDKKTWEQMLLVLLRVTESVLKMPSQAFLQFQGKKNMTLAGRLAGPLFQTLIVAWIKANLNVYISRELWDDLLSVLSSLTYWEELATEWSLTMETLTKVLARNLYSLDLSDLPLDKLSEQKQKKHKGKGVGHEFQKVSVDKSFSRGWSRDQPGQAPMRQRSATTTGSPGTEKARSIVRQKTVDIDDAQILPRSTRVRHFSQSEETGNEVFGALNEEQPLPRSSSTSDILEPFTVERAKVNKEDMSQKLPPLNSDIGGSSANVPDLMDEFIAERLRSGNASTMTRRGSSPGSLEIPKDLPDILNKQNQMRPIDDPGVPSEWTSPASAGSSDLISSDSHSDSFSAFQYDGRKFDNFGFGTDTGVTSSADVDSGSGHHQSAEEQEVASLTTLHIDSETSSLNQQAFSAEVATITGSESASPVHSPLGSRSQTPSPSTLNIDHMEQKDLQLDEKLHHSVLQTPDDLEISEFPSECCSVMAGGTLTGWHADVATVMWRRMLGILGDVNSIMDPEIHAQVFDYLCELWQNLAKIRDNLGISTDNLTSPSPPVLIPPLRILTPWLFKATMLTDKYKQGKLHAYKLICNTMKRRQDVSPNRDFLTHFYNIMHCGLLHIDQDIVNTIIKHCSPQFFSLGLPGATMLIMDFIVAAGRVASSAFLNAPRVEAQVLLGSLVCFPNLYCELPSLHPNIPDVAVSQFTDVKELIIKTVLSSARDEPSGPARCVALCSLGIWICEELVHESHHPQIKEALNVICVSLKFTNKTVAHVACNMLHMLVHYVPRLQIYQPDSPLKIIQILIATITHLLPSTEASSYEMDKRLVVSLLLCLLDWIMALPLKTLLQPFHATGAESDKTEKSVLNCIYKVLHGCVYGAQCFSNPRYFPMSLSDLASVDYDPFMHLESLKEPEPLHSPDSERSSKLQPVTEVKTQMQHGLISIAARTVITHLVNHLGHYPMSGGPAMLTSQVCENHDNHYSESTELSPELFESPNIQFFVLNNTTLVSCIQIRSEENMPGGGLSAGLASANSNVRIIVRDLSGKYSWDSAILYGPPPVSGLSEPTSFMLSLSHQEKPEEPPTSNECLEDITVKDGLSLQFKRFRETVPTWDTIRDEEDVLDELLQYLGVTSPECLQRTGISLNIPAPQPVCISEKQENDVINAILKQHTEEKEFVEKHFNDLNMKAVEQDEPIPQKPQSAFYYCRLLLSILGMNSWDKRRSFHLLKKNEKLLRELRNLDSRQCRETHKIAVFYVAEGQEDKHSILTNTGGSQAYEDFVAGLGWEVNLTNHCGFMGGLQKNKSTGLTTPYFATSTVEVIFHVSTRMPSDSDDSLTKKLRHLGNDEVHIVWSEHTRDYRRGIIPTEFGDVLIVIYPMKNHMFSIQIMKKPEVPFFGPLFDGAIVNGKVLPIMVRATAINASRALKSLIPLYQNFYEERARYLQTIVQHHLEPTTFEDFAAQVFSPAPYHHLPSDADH
UniProt Q9Y4B4: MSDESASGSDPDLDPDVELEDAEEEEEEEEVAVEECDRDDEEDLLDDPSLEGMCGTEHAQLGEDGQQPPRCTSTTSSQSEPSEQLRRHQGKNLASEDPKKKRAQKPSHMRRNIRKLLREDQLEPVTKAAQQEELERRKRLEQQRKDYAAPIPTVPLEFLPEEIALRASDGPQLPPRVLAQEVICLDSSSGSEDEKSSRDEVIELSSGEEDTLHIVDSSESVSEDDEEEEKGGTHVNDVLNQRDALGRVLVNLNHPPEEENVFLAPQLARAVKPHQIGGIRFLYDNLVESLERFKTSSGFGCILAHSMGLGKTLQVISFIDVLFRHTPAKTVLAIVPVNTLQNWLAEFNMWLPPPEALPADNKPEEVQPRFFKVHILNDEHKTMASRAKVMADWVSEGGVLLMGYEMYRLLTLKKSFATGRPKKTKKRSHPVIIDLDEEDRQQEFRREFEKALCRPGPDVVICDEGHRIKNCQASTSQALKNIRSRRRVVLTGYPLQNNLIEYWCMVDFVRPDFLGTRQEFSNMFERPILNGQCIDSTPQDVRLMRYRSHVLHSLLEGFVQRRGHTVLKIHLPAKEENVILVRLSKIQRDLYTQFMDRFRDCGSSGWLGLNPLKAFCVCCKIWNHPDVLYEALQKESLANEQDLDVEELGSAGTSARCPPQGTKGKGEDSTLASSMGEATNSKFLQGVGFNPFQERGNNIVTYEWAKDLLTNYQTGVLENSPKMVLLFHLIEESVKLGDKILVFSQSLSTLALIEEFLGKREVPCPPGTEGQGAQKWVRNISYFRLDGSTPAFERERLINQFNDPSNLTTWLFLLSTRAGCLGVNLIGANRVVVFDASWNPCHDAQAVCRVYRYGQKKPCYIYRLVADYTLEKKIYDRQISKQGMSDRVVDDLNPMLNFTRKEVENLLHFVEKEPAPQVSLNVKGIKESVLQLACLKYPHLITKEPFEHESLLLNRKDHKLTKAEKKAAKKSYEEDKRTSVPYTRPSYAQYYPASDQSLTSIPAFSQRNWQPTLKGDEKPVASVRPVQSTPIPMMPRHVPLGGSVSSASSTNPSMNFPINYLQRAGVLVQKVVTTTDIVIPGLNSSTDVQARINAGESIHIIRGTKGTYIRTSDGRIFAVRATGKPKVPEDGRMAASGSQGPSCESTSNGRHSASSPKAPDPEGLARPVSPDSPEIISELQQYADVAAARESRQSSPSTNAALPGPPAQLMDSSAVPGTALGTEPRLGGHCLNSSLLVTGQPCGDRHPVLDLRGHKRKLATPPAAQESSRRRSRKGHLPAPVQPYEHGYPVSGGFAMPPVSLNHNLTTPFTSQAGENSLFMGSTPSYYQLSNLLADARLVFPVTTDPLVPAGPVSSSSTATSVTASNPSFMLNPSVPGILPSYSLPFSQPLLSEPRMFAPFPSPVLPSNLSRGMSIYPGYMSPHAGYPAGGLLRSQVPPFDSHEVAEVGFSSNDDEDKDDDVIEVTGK
UniProt O60216: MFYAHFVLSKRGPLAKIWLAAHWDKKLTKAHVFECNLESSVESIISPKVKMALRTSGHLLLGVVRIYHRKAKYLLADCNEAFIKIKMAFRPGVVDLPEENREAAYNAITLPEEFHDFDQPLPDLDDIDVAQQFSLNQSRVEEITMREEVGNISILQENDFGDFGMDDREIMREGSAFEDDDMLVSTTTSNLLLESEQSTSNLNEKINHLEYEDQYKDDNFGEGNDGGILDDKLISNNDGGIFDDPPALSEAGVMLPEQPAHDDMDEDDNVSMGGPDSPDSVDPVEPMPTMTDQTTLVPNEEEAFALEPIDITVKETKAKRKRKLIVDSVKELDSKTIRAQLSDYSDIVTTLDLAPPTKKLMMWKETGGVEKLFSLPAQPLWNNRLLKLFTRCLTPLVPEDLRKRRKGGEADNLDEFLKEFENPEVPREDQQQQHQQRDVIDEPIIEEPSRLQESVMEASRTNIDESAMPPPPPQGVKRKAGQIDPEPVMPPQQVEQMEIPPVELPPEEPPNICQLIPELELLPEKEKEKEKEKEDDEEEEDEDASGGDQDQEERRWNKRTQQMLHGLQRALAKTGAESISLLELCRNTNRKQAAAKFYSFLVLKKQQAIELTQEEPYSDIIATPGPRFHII
UniProt Q9UI14, whole entry, looked up: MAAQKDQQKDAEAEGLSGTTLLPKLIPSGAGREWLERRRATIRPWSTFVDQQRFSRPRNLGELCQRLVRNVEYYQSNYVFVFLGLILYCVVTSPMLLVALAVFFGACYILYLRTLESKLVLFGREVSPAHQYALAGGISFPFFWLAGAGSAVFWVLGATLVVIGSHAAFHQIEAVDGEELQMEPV
UniProt Q9H5N1: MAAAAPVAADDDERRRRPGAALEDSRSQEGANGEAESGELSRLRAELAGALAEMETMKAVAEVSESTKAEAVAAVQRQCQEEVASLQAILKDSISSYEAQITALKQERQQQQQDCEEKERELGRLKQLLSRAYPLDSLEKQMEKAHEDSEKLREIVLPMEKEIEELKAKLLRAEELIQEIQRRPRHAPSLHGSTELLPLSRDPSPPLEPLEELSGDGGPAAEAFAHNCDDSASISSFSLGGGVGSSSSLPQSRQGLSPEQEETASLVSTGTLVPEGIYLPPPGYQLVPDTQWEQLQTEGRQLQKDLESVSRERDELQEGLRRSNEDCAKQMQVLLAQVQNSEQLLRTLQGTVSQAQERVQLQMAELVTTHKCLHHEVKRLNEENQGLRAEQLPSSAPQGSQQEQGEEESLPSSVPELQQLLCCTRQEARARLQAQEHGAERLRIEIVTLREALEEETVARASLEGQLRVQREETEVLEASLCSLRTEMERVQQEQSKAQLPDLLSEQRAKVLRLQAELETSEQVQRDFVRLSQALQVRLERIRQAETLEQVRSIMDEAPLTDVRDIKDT
UniProt P51151: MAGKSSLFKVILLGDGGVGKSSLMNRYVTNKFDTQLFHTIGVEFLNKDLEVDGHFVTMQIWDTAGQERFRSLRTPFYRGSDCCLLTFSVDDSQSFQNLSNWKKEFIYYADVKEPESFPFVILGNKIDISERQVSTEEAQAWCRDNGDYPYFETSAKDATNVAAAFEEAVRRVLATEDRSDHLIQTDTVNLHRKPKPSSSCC
UniProt P51153: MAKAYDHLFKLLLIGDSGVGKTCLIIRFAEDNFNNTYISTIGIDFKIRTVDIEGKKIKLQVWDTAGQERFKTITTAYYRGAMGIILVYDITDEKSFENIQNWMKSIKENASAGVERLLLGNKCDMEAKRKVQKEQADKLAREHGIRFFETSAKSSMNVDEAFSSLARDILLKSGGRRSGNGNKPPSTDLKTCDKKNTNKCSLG

What was measured:
Experiment in all cases: log2 fold change, soluble protein after heating vs DMSO (PISA); higher = thermal stabilisation; K562 lysate, 10 uM; active = over 0.2 and 3.5 SD of the protein, either way, in both replicates (recomputed)
nilotinib = compound: Cc1cn(-c2cc(NC(=O)c3ccc(C)c(Nc4nccc(-c5cccnc5)n4)c3)cc(C(F)(F)F)c2)cn1 [nilotinib]
In short: (§1)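 K562 pellets were dounce-homogenised in PBS pH 7.4 with 1 mM MgCl2, and the crude extract at 1 mg/mL protein was treated with 10 μM compound for 30 min. Aliquots were heated for 3 min across 48°C-58°C, pooled, and brought to 0.5% NP-40 at 4°C; soluble protein was the supernatant after 21,000xg for 90 min. Soluble protein was quantified by TMTpro 16plex LC-MS/MS with channel sums equalised, and reported as log2 fold change in thermal stability against DMSO controls, with values from duplicates.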

[1] = compound: Cc1nc(Nc2n[nH]c3c2CN(C(=O)N[C@H](CN(C)C)c2ccccc2)C3(C)C)c2sccc2n1
In short: as §1

dasatinib = compound: Cc1nc(Nc2ncc(C(=O)Nc3c(C)cccc3Cl)s2)cc(N2CCN(CCO)CC2)n1 [dasatinib]
In short: as §1

[2] = compound: Cc1ncc(-c2ccnc(Nc3ccc(S(C)(=O)=O)cc3)n2)n1C(C)C
In short: as §1

[3] = compound: Cn1cc(-c2ccc3c(c2)CCN3C(=O)Cc2cccc(C(F)(F)F)c2)c2c(N)ncnc21
In short: as §1

quisinostat = compound: Cn1cc(CNCC2CCN(c3ncc(C(=O)NO)cn3)CC2)c2ccccc21 [quisinostat]
In short: as §1

tipifarnib = compound: Cn1cncc1[C@@](N)(c1ccc(Cl)cc1)c1ccc2c(c1)c(-c1cccc(Cl)c1)cc(=O)n2C [tipifarnib]
In short: as §1

[4] = compound: NC(=O)Nc1cc(-c2cccc(F)c2)sc1C(=O)N[C@H]1CCCNC1
In short: as §1

[5] = compound: NC(=O)c1cnc(N[C@@H]2CCCC[C@@H]2N)nc1Nc1cccc(-n2nccn2)c1
In short: as §1

[6] = compound: NC1(c2ccc(-c3nc4ccn5c(=O)[nH]nc5c4cc3-c3ccccc3)cc2)CCC1
In short: as §1

Measured: log2 fold change

RAB11B (UniProt Q15907)
inactive: nilotinib 0.027 | [1] -0.009 | dasatinib -0.011 | [2] -0.005 | [3] 0.021 | quisinostat -0.017 | tipifarnib -0.014 | [4] -0.041 | [5] 0.005 | [6] -0.012

RAP2C (UniProt Q9Y3L5)
inactive: nilotinib 0.058 | [1] 0.015 | dasatinib 0.035 | [2] -0.162 | [3] 0.088 | quisinostat 0.054 | tipifarnib -0.122 | [4] -0.055 | [5] 0.006 | [6] -0.052

RAB5C isoform 2 (UniProt P51148)
inactive: nilotinib 0.027 | [1] 0.015 | dasatinib -0.05 | [2] 0.004 | [3] 0 | quisinostat 0.002 | tipifarnib -0.009 | [4] 0.008 | [5] -0.009 | [6] -0.018

RAB12 (UniProt Q6IQ22)
inactive: nilotinib -0.061 | [1] 0.015 | dasatinib 0.051 | [2] 0.04 | [3] 0.022 | quisinostat -0.077 | tipifarnib -0.023 | [4] 0.049 | [5] -0.025 | [6] -0.036

RAP2A (UniProt P10114)
inactive: nilotinib -0.003 | [1] -0.05 | dasatinib 0.049 | [2] 0.042 | [3] -0.017 | quisinostat 0.001 | tipifarnib 0.04 | [4] -0.017 | [5] 0.021 | [6] -0.004

RALGAPA1 isoform 6 (UniProt Q6GYQ0)
inactive: nilotinib -0.05 | [1] -0.044 | dasatinib -0.018 | [2] -0.066 | [3] 0.071 | quisinostat -0.15 | tipifarnib 0.019 | [4] 0.039 | [5] 0.052 | [6] -0.08

RAB23 (UniProt Q9ULC3)
inactive: nilotinib -0.018 | [1] 0.011 | dasatinib -0.066 | [2] -0.019 | [3] 0.016 | quisinostat -0.004 | tipifarnib 0.029 | [4] -0.015 | [5] 0.011 | [6] -0.047

RAD54L2 (UniProt Q9Y4B4)
inactive: nilotinib -0.037 | [1] -0.03 | dasatinib -0.053 | [2] -0.047 | [3] -0.15 | quisinostat -0.009 | tipifarnib -0.105 | [4] -0.013 | [5] 0.035 | [6] -0.091

RAD21 (UniProt O60216)
inactive: nilotinib -0.005 | [1] -0.008 | dasatinib 0 | [2] -0.01 | [3] 0.048 | quisinostat 0.008 | tipifarnib 0.013 | [4] -0.012 | [5] 0.007 | [6] 0.039

RABAC1 (UniProt Q9UI14)
inactive: nilotinib -0.018 | [1] 0.008 | dasatinib 0.049 | [2] 0.103 | [3] 0.026 | quisinostat -0.008 | tipifarnib 0.074 | [4] -0.066 | [5] 0.056 | [6] 0.071

RAB2A (UniProt P61019)
inactive: nilotinib -0.002 | [1] 0.006 | dasatinib 0 | [2] -0.112 | [3] 0.005 | quisinostat 0.049 | tipifarnib -0.045 | [4] -0.025 | [5] -0.003 | [6] 0.029

RALBP1 (UniProt Q15311)
inactive: nilotinib -0.057 | [1] 0.051 | dasatinib -0.006 | [2] 0.012 | [3] 0 | quisinostat -0.087 | tipifarnib -0.032 | [4] -0.017 | [5] -0.001 | [6] 0.008

PYM1 (UniProt Q9BRP8)
inactive: nilotinib 0.027 | [1] 0.006 | dasatinib -0.075 | [2] 0.04 | [3] -0.001 | quisinostat -0.047 | tipifarnib -0.018 | [4] 0.007 | [5] -0.025 | [6] -0.003

RABEP2 (UniProt Q9H5N1)
inactive: nilotinib 0.038 | [1] -0.006 | dasatinib 0.026 | [2] 0.029 | [3] 0.016 | quisinostat -0.029 | tipifarnib 0.046 | [4] -0.002 | [5] 0.005 | [6] 0.006

R3HDM4 (UniProt Q96D70)
inactive: nilotinib 0 | [1] 0.089 | dasatinib 0.041 | [2] -0.012 | [3] 0.033 | quisinostat -0.005 | tipifarnib -0.114 | [4] 0.033 | [6] -0.048

RAB35 (UniProt Q15286)
inactive: nilotinib -0.043 | [1] 0.004 | dasatinib -0.024 | [2] 0 | [3] -0.082 | quisinostat -0.026 | tipifarnib -0.013 | [4] -0.004 | [5] 0.003 | [6] 0.001

PXK (UniProt Q7Z7A4)
inactive: nilotinib 0.031 | [1] -0.031 | dasatinib 0.207 | [2] -0.034 | [3] 0.023 | quisinostat 0.006 | tipifarnib 0.013 | [4] 0.006 | [5] -0.016 | [6] 0.007

RANGAP1 (UniProt P46060)
inactive: nilotinib 0.014 | [1] -0.004 | dasatinib -0.026 | [2] 0.01 | [3] 0.008 | quisinostat -0.013 | tipifarnib -0.032 | [4] 0.004 | [5] 0.002 | [6] 0.002

RAPGEF2, A0A2R8YGD3
inactive: nilotinib -0.032 | [1] 0.027 | dasatinib 0.052 | [2] -0.036 | [3] 0.008 | quisinostat -0.018 | tipifarnib -0.017 | [4] 0.054 | [5] -0.02 | [6] 0.024

PYCR2 (UniProt Q96C36)
inactive: nilotinib 0.03 | [1] -0.027 | dasatinib 0.011 | [2] -0.007 | [3] -0.005 | quisinostat 0.073 | tipifarnib -0.015 | [4] -0.021 | [5] 0.007 | [6] 0.018

RAB9A (UniProt P51151)
inactive: nilotinib -0.041 | [1] -0.038 | dasatinib -0.006 | [2] 0.013 | [3] -0.03 | quisinostat 0.069 | tipifarnib -0.035 | [4] -0.032 | [5] -0.014 | [6] -0.001

RAD51 (UniProt Q06609)
inactive: nilotinib 0.039 | [1] -0.002 | dasatinib 0 | [2] 0.009 | [3] 0.01 | quisinostat -0.016 | tipifarnib 0.018 | [4] 0.046 | [5] -0.099 | [6] 0.054

2 neighbouring records already listed, quoted:
RAB9A (UniProt P51151)
inactive: nilotinib -0.041 | [1] -0.038 | dasatinib -0.006 | [2] 0.013 | [3] -0.03 | quisinostat 0.069 | tipifarnib -0.035 | [4] -0.032 | [5] -0.014 | [6] -0.001

RAD51 (UniProt Q06609)
inactive: nilotinib 0.039 | [1] -0.002 | dasatinib 0 | [2] 0.009 | [3] 0.01 | quisinostat -0.016 | tipifarnib 0.018 | [4] 0.046 | [5] -0.099 | [6] 0.054

(list continues)

RANBP17 (UniProt Q9H2T7)
inactive: nilotinib 0.137 | [1] 0.133 | dasatinib 0.009 | [2] 0.118 | [3] -0.101 | quisinostat -0.422 | tipifarnib 0.093 | [4] -0.059 | [5] 0.012 | [6] 0.019

RABGAP1L isoform 3 (UniProt Q5R372)
inactive: nilotinib 0.005 | [1] 0.001 | dasatinib 0.024 | [2] 0.022 | [3] 0.022 | quisinostat -0.01 | tipifarnib -0.026 | [4] 0 | [5] -0.011 | [6] -0.015

RAB13 (UniProt P51153)
inactive: nilotinib -0.045 | [1] 0.006 | dasatinib -0.015 | [2] -0.074 | [3] 0.011 | quisinostat 0.188 | tipifarnib -0.047 | [4] -0.055 | [5] -0.095 | [6] 0.123

RAD23B (UniProt P54727)
inactive: nilotinib -0.009 | [1] -0.001 | dasatinib 0.02 | [2] -0.004 | [3] 0 | quisinostat -0.023 | tipifarnib -0.013 | [4] -0.001 | [5] 0.012 | [6] 0.018

RAI14 isoform 2 (UniProt Q9P0K7)
inactive: nilotinib -0.004 | [1] -0.006 | dasatinib -0.003 | [2] -0.05 | [3] 0.013 | quisinostat -0.023 | tipifarnib -0.036 | [4] -0.02 | [5] 0.012 | [6] -0.013

RAB11A (UniProt P62491)
inactive: nilotinib -0.061 | [1] -0.024 | dasatinib 0.017 | [2] 0.237 | [3] 0.013 | quisinostat 0.047 | tipifarnib -0.128 | [4] -0.009 | [5] 0.048 | [6] -0.03

RAP1GDS1 isoform 5 (UniProt P52306)
inactive: nilotinib -0.024 | [1] 0.021 | dasatinib 0.013 | [2] -0.07 | [3] 0.004 | quisinostat 0.006 | tipifarnib 0.005 | [4] 0.02 | [5] -0.019 | [6] -0.014

RACGAP1 (UniProt Q9H0H5)
inactive: nilotinib 0.068 | [1] -0.08 | dasatinib -0.025 | [2] -0.015 | [3] 0.02 | quisinostat 0.015 | tipifarnib 0.082 | [4] 0.004 | [5] 0.159 | [6] 0.034
